The supplement of paper PMC3334620
Over roughly 33,000 sequences, “E-score (-0.5 to 0.5)” has its median near -0.0014; the highest 2% begin near 0.25. This is one part of the list.

Each sequence was assayed against T1, Cad1 (UniProt P24813) (assay: PBM E-score (8-mer binding enrichment) (E-score (-0.5 to 0.5)); higher = stronger / more preferred TF binding). Conditions: protein concentration: 100 nM; construct: GST-full length.
T1 sequence: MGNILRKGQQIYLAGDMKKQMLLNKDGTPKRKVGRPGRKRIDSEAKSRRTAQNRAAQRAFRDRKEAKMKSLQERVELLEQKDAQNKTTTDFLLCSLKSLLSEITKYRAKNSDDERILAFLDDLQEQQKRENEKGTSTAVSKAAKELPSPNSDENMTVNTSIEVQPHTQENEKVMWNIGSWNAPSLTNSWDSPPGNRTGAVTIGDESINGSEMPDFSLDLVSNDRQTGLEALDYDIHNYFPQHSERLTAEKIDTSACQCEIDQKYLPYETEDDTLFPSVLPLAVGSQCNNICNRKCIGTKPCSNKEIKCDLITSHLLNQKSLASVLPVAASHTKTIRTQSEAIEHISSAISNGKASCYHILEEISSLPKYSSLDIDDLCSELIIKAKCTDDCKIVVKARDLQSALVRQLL
Summary of the method: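 Each ungapped eight-base word and its reverse complement, pooled, received an E-score from the Universal PBM Analysis Suite. Underlying scans, normalised with masliner, recorded fluorescent anti-GST bound to GST-tagged yeast transcription factors. These were applied at about 100-200 nM to universal all-10-mer Agilent arrays double-stranded by primer extension.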

Sequence	PBM E-score
GCAATAAC	0.124
GACCGACA	-0.11
AATGTATA	0.111
GCATGGAA	-0.0952
CAGCGTTC	0.0544
ACACCGAA	-0.0255
AGCGTCTA	-0.179
GTCCGTCA	0.0105
AGAAACCT	-0.00087
ACGTGACA	0.154
ACTGGACA	-0.00506
ACTACTCT	0.096
GACCGAGC	-0.13
ATGATCCG	0.0247
AGTGGTAC	-0.103
ACGTTCCG	-0.0396
CCTGCCAG	-0.147
GTTCCGGA	0.143
AGAGGATA	-0.092
AGAATAGG	0.0961
ATGCAGCG	-0.0533
AAAACGAC	0.0698
CAAAGGTG	-0.107
GGCCAGCA	-0.00264
CCCCCCGC	-0.418

Sequence	PBM E-score
GGCAGGCC	-0.0559
GCTGTGCA	-0.0876
CTTTCCTC	-0.174
GCGACCCA	-0.136
AATCCTAT	0.193
CCAGGTTC	-0.144
GGAGACAA	0.0925
CCCAATCC	-0.113
CCATCAGC	-0.0845
ATGTATGC	0.138
CCGTACGC	-0.0844
ATCCCCAT	-0.102
CAAGGGAG	-0.152
AAGCCGGT	-0.024
GCGGGAGC	-0.146
CGTCCTAG	-0.0805
AAAGACTA	-0.15
TATTGTGA	0.0688
AGCTTCGC	-0.107
ACTAGACA	0.112
CGTAGATC	0.0236
ATCTAATA	0.147
CAGCTATC	-0.0176
CCCCATCA	-0.00342
AAGTCTGA	-0.14

Sequence	PBM E-score
CGAGGCCG	-0.0246
CAGCCATA	-0.0726
CACAGAAC	-0.134
GTGTCTCA	0.0466
CTAGGGAC	-0.06
AGGAGAAG	-0.167
AATAATAT	0.208
CTTGTCAA	-0.0346
AGCCATTC	-0.0993
AGTACGAC	0.0664
CCACATGG	-0.0422
CACGTGTA	-0.129
GACATCTA	0.097
AGGCGCCT	-0.0621
ATGAGAAG	-0.0696
AGCTGTTG	0.148
TCGAGTAA	0.221
ACGCGAGC	0.214
CAAACTGG	-0.0454
GAGGTCCA	-0.103
TTGGAAAA	-0.113
AGGCAATA	-0.123
CTTGGGTC	-0.0772
ACGGGGAT	-0.0909
CACCCTCG	-0.184

Some of the entries so far, with each value named:
GGAGACAA
  PBM E-score: 0.0925
CCCAATCC
  PBM E-score: -0.113
CCATCAGC
  PBM E-score: -0.0845
ATGTATGC
  PBM E-score: 0.138

The list continues:

Sequence	PBM E-score
AACGAATA	-0.0413
GCAGTAGC	-0.0461
ACCATTGA	0.00633
AAGCAAGA	-0.0477
TAAGTCAA	-0.0989
GACAATCC	0.16
CTTATAGA	0.014
ATGCTAGC	-0.0118
AGTACTGA	0.134
CAATTGGA	-0.0273
ATGGTTTC	0.0425
ACCGGGCG	-0.182
CACATTCA	-0.0432
CCAAAAAC	0.116
AGATCTCG	0.0913
AATCAGTC	0.172
CAGACCGC	0.0752
ACTATCAG	0.0079
CGGCCCGA	0.00519
CAACCCCC	-0.387
AACGCAAG	0.0816
CGAATAAG	-0.118
CAACACGA	0.134
CAAGTCCA	-0.0962
GTATCGTA	0.104

Sequence	PBM E-score
GCCTACGA	0.0795
ACCACGCC	-0.187
TCGACCGA	0.0694
AAACCACA	0.0171
AGAGCTTC	-0.181
AGGTCCTG	-0.106
CGCTCGAA	0.122
ACAAACCG	0.038
GACAAGTA	-0.102
CACTCAAC	0.1
GGTGGATA	-0.0363
TAGATAAA	0.0266
ACGAAACG	0.0195
ACATAGTG	0.0291
GACTAACC	-0.122
GCTGCTTA	0.0501
CCGTTTTA	-0.188
CCAATTGG	0.263
ATAGGCCA	-0.0861
CACTCGCA	0.0673
AAAACTCT	-0.0253
CGGTGGGA	-0.0551
CCCACAAC	-0.122
CTAATGGC	-0.00205
ATTCACTG	0.0352

Sequence	PBM E-score
AGCGTGCA	0.131
CACCGGGG	-0.402
GATACTGC	0.0988
CCCTGTAG	-0.05
AGACGTCC	0.0957
ATCTGAAA	0.065
ACGTGACC	-0.263
GTGAGAGA	0.021
CCAGGTTA	0.0257
GTTCAAAA	0.0283
GAATCGGC	0.144
CAAAGACC	-0.127
CACCCATA	-0.159
GATGGACA	0.102
ACTCTCGG	-0.0764
TCCGAAAA	-0.0265
ACCCTGAG	0.0191
ATAACTAG	-0.00544
GACGCACA	-0.0334
CTATGATC	0.0514
ACACCTCA	-0.0985
ACCGGCTC	-0.0669
CCTCGAGG	0.0297
CTTCCGGC	0.00067
CTCCGCAA	-0.0758

Sequence	PBM E-score
CGTTTATA	0.237
AGAAGATA	0.116
CCATTAAA	-0.0479
CACTGGCC	-0.161
AGCTTCGG	-0.0805
ATGATTGC	0.154
CACTATCG	0.0968
TGATGGCA	-0.203
CGATACTA	0.163
CATCTGAG	-0.0546
AGGGGTGC	-0.208
AGGCACAC	-0.181
GATAAGCA	0.154
ACGCAGCA	0.121
CCATGACG	-0.0191
GCCGGAGA	-0.051
CTGCGCTA	0.0362
AGACGAGC	-0.0882
GCCTCCAA	-0.159
AACAGGAG	-0.131
CGCGTGAC	0.056
GTGGTACA	-0.133
TCGCGAAA	0.168
CCGCATCG	-0.346
TACGAGAA	0.0359

Sequence	PBM E-score
TGAAATAA	0.0334
CTAAAATC	-0.0595
GCTTTTAA	-0.0518
CTGGTCTA	-0.15
GCCGACTA	0.227
AGTAGAAT	0.0697
ACCGCTTG	-0.104
CAACGGGA	-0.0881
CGACATCC	-0.0474
AGATTTCC	0.185
AAGGCAAA	-0.0488
ACGTTCTA	0.0389
ATGACCTA	0.016
CGCGCCCC	-0.00126
ATGATTCA	-0.0406
CCGTCATC	-0.013
AGATTAGA	-0.0156
AAGTTCGT	0.0241
GAGCTGCA	-0.0895
CATCCGCC	-0.0163
AGGCTGGA	-0.176
ACACGATC	-0.0881
ACTAATCT	0.135
CGCCAGAC	0.0825
ACAAGTAA	-0.136

Sequence	PBM E-score
CAGACTCC	-0.0716
CTTTATAC	-0.194
GAATACCC	-0.0103
ATGTGACG	-0.185
ACCGTTCA	-0.0296
ACGCAGAC	0.0915
ATGGGTGG	-0.148
ACTCACAT	0.00257
ATTATTCC	0.131
GTGCAAGA	-0.0224
GTTAACCA	0.179
CACAGTAA	0.291
GCCCGCCC	-0.0832
CTTTAAGA	0.191
GAGCGACA	0.0316
GCTGAGCA	0.149
GAAAGTGC	-0.245
CTGGTTGA	-0.197
GGAAGCTA	0.174
AGTCCGGA	0.226
AGTAGCGA	0.0562
CCAATAAA	0.169
GACCTGTA	-0.148
AAAATAAT	0.314
CGGTATGC	-0.0872

Sequence	PBM E-score
CACCACGA	0.0868
AGACACAG	0.0295
ACGGCATG	0.0114
CAGTATGA	0.0583
CCCCGTCG	-0.23
AGACACAT	-0.154
AAAAGAAC	0.118
CTCGATAA	0.0969
ATAAAGGA	-0.21
GTAGCTGA	0.0883
CGAAGGTA	0.00494
GCACAGAC	0.096
ACATTTGG	-0.0952
AAGTGAAT	0.173
CAGTCTTC	-0.194
TAGTTACA	-0.0231
CAGAGGCG	-0.0709
ACTCGCTG	0.0475
GTTCCAAC	0.0238
ACCTCAGG	-0.126
ACCAATCG	0.0493
AGAATGAC	0.0369
CACCCGGC	-0.252
GTCCGGAC	0.319
CTCGCCAG	-0.218

Sequence	PBM E-score
CTCTACCA	-0.1
AGAGGGAT	-0.282
AGTAGTGA	0.0185
AGGGAGGG	-0.147
GGCTATCA	-0.0751
CACTCGAA	-0.0275
AAGAGTTG	0.069
AGTATGCA	0.0157
GCGGACAA	0.206
AAAAATAC	0.211
ACAAACTC	0.052
ACCTACGG	-0.361
CGGAAGAG	-0.154
GGATATGA	-0.0132
GTGAACTA	-0.0351
CTCTCGAA	0.0102
AAGTCGGA	0.0401
AATCAGAT	0.134
TGCCGCCA	0.0461
GAAGGAAC	-0.117
GAATTTCC	0.164
ATCAGGCC	0.0828
GAGCGCAC	-0.00739
GTCATATA	0.0271
CGTATACG	0.17

Sequence	PBM E-score
AACTAGAC	0.0391
AGCTCGAG	0.0033
CGAGCAGA	-0.0763
CGAGAAAG	0.0518
AAGTTTGC	0.0667
ATCATGGA	-0.176
GCCGCGGC	0.347
AACGCACA	0.15
CATAGCGG	-0.142
ATTTCCTC	0.173
AACTCGTA	0.178
CGCTCTGC	-0.102
AAGAAGTC	-0.0508
ATTTTTCA	0.204
AGAAGAGA	-0.0757
CTACGAGA	-0.114
ATGCTTGG	-0.0606
CATGCGCG	0.202
ATCGATCC	0.0374
TAACCGCA	0.0919
CGATCAAA	0.0133
AGGAATTA	0.15
CCTCCCCG	-0.0239
CAGTTTCG	-0.0539
CTTCTGTA	-0.00063

In a second layout: results already given
AGTACTGA
  PBM E-score: 0.134
CAATTGGA
  PBM E-score: -0.0273

The results go on:

Sequence	PBM E-score
GGGTTAAA	-0.218
GGTCCGAC	-0.0932
AATGGAGC	0.084
AACTTCCC	-0.0274
GCGACCGA	0.0587
CAAACAGG	-0.17
CAGCGGGC	0.00044
CTCGAAAC	0.16
AATACAAG	0.0824
CAGCTCCA	-0.0649
CCGCCCCC	-0.373
GCTTCATA	0.0649
AAGCAAAA	0.118
CACACGGG	-0.052
TAGAGAAA	-0.0236
GCGATAGC	-0.0468
CTAATTTC	0.124
CAAATACA	0.106
CTGTGGGA	-0.143
CCGAGGGA	-0.174
CGGGCCCC	-0.136
GGTGACAC	-0.126
AGGCGCCA	0.142
CAGATTCG	-0.00892
CCAGACCC	-0.191

Sequence	PBM E-score
ACCAGATG	-0.0464
TCGCACGA	-0.0443
GGGACTCA	-0.139
TCAAGACA	0.0237
AGTTTGGC	0.109
AATAAAAG	0.0174
CCAAGTCA	-0.132
CCTGCTCC	-0.036
AATCATGA	0.317
AAAAACTT	-0.0813
AGTGTGTA	0.0886
GAGTTATC	0.219
CACCTTTA	-0.051
ATACCTAG	-0.0127
AAGAGGAG	-0.158
GATAGTGC	-0.0578
ACTAATGG	0.209
CGGCGCCA	0.0675
CCTGACAC	0.0201

Taken from above:
CCTGACAC | PBM E-score: 0.0201
AGATTAGA | PBM E-score: -0.0156
CAAAGACC | PBM E-score: -0.127
GCTGTGCA | PBM E-score: -0.0876
